Counter-ions that a name gives are not always drawn. Some of these results come from one statement about several compounds together.
Key:
Influenza A/Sydney/5/97 = assay: Cytopathic effect (CPE) assay, inhibition of influenza virus replication in MDCK cells; assay type: cell-based; details: concentration that inhibited CPE by 50%, up to 72 hours
Influenza B/Harbin/7/95 = assay: as above; assay type: cell-based; details: concentration that inhibited CPE by 50%, up to 72 hours
[1] = listed as compound E1, bis(trifluoroacetic acid salt)
[2] = listed as compound E2, bis(trifluoroacetic acid salt)
[3] = listed as compound E3, bis(trifluoroacetic acid salt)
[4] = listed as compound E4, bis(trifluoroacetic acid salt)

CC(=O)N[C@H]1[C@H]([C@H](OC(=O)NCCCCCCCCCCCNC(=O)O[C@@H]([C@@H]2OC(C(=O)O)=C[C@H](NC(=N)N)[C@H]2NC(C)=O)[C@H](O)CO)[C@H](O)CO)OC(C(=O)O)=C[C@@H]1NC(=N)N.O=C(O)C(F)(F)F.O=C(O)C(F)(F)F [Example 1, (2R,3R,4S)-3-(acetylamino)-2-{(1R,19R,20R)-19-((2R,3R,4S)-3-(acetylamino)-4-{[amino(imino)methyl]amino}-6-carboxy-3,4-dihydro-2H-pyran-2-yl)-1-[(1R)-1,2-dihydroxyethyl]-20,21-dihydroxy-3,17-dioxo-2,18-dioxa-4,16-diazahenicos-1-yl}-4-{[amino(imino)methyl]amino}-3,4-dihydro-2H-pyran-6-carboxylic acid bis(trifluoroacetic acid salt)]
ID50 μg/ml A/Sydney/5/97 (Influenza A/Sydney/5/97; [1]): even more potent against A/Sydney/5/97
ID50 μg/ml B/Harbin/7/95 (Influenza B/Harbin/7/95; [1]): substantially more potent against the recent influenza B isolate B/Harbin/7/95

CC(=O)N[C@H]1[C@H]([C@H](OC(=O)NCCCCCCCCCCCCNC(=O)O[C@@H]([C@@H]2OC(C(=O)O)=C[C@H](NC(=N)N)[C@H]2NC(C)=O)[C@H](O)CO)[C@H](O)CO)OC(C(=O)O)=C[C@@H]1NC(=N)N.O=C(O)C(F)(F)F.O=C(O)C(F)(F)F [Example 2, (2R,3R,4S)-3-(acetylamino)-2-{(1R,20R,21R)-20-((2R,3R,4S)-3-(acetylamino)-4-{[amino(imino)methyl]amino}-6-carboxy-3,4-dihydro-2H-pyran-2-yl)-1-[(1R)-1,2-dihydroxyethyl]-21,22-dihydroxy-3,18-dioxo-2,19-dioxa-4,17-diazadocos-1-yl}-4-{[amino(imino)methyl]amino}-3,4-dihydro-2H-pyran-6-carboxylic acid bis(trifluoroacetic acid salt)]
ID50 μg/ml A/Sydney/5/97 (Influenza A/Sydney/5/97; [2]): even more potent against A/Sydney/5/97
ID50 μg/ml B/Harbin/7/95 (Influenza B/Harbin/7/95; [2]): substantially more potent against the recent influenza B isolate B/Harbin/7/95

CC(=O)N[C@H]1[C@H]([C@H](OC(=O)NCCCCCCCCCCCCCCNC(=O)O[C@@H]([C@@H]2OC(C(=O)O)=C[C@H](NC(=N)N)[C@H]2NC(C)=O)[C@H](O)CO)[C@H](O)CO)OC(C(=O)O)=C[C@@H]1NC(=N)N.O=C(O)C(F)(F)F.O=C(O)C(F)(F)F [Example 3, (2R,3R,4S)-3-(acetylamino)-2-{(1R,22R,23R)-22-((2R,3R,4S)-3-(acetylamino)-4-{[amino(imino)methyl]amino}-6-carboxy-3,4-dihydro-2H-pyran-2-yl)-1-[(1R)-1,2-dihydroxyethyl]-23,24-dihydroxy-3,20-dioxo-2,21-dioxa-4,19-diazatetracos-1-yl}-4-{[amino(imino)methyl]amino}-3,4-dihydro-2H-pyran-6-carboxylic acid bis(trifluoroacetic acid salt)]
ID50 μg/ml A/Sydney/5/97 (Influenza A/Sydney/5/97; [3]): even more potent against A/Sydney/5/97
ID50 μg/ml B/Harbin/7/95 (Influenza B/Harbin/7/95; [3]): substantially more potent against the recent influenza B isolate B/Harbin/7/95

CC(=O)N[C@H]1[C@H]([C@H](OC(=O)NCCCCCCCCCCCCCNC(=O)O[C@H](C(O)CO)[C@@H]2OC(C(=O)O)=C[C@H](NC(=N)N)[C@H]2NC(C)=O)[C@H](O)CO)OC(C(=O)O)=C[C@@H]1NC(=N)N (stereo partly drawn) [Example 4, (2R,3R,4S)-3-(acetylamino)-2-{(1R,21R,22R)-21-((2R,3R,4S)-3-(acetylamino)-4-{[amino(imino)methyl]amino}-6-carboxy-3,4-dihydro-2H-pyran-2-yl)-1-[(1R)-1,2-dihydroxyethyl]-22,23-dihydroxy-3,19-dioxo-2,20-dioxa-4,18-diazatricos-1-yl}-4-{[amino(imino)methyl]amino}-3,4-dihydro-2H-pyran-6-carboxylic acid bis(trifluoroacetic acid salt)]
ID50 μg/ml A/Sydney/5/97 (Influenza A/Sydney/5/97; [4]): even more potent against A/Sydney/5/97
ID50 μg/ml B/Harbin/7/95 (Influenza B/Harbin/7/95; [4]): substantially more potent against the recent influenza B isolate B/Harbin/7/95

From patent US20050085413A1, “Dimeric pharmaceutical compounds and their use” (priority 2001, published 2005)
